{"source": "paper PMC12040169", "about": "(PLOS Biology, 2025)", "note": "The other results are listed elsewhere or left out."}
{"test_system": "T1, CTL2-GFP (C. trachomatis L2/434/Bu, GFP-expressing)", "T1 construct": "L2/434/Bu, GFP-expressing", "set-up": "species or system HeLa; Intracellular C. trachomatis growth in HeLa cells, bulk GFP fluorescence relative to DMSO", "conditions": "bulk GFP, single well; 28.5 h, 10 µM; inhibitor", "units": {"% of control remaining": "%"}}
{"smiles": "CC(=O)N1N=C(c2cccnc2)OC1(C)C", "note": "[CBK023619]", "% of control remaining": 118.531}
{"smiles": "Cc1nc(CC(=O)N2[C@H]3CCCCCN(C)[C@@]3(C)C[C@H]2c2ccccc2)cs1", "note": "[CBK286104]", "% of control remaining": 87.391}
{"smiles": "COc1cc(CN2CCN(C/C=C/c3ccccc3)CC2)c([N+](=O)[O-])cc1OC", "note": "[CBK261550]", "% of control remaining": 110.649}
{"smiles": "O=C(Nc1cccc(C(=O)O)c1)/C(=C\\c1ccc2c(c1)OCO2)NC(=O)c1ccc(Br)o1", "note": "[CBK263720]", "% of control remaining": 100}
{"smiles": "COc1ccc(-c2cnc3[nH]c(=O)n([C@@H](CO)C(C)C)c3n2)c(OC)c1OC", "note": "[CBK064774]", "% of control remaining": 108.551}
{"smiles": "CC1CC(C)CN(C(=O)NCCCCCC(=O)O)C1", "note": "(stereo not drawn) [CBK286793]", "% of control remaining": 116.281}
{"smiles": "O=C(Nc1cccc(C(F)(F)F)c1)c1c(O)c2ccccc2[nH]c1=O", "note": "[CBK159985]", "% of control remaining": 125.895}
{"smiles": "CCc1nc(CN2CCCC(NCc3cccc(C(N)=O)c3)C2)no1", "note": "(stereo not drawn) [CBK306254]", "% of control remaining": 194.69}
{"smiles": "COCCCn1cnnc1C(C)NC(=O)N(C)Cc1nccs1", "note": "(stereo not drawn) [CBK306702]", "% of control remaining": 129.809}
{"smiles": "c1ccc(N2CCN(C3CCN(Cc4ccccn4)CC3)CC2)cc1", "note": "[CBK264684G]", "% of control remaining": 130.796}
{"smiles": "Cc1cc(C)nc(-n2[nH]c(N)cc2=O)n1", "note": "[CBK270164]", "% of control remaining": 144.394}
{"smiles": "Cc1cc(C(=O)N2CCc3c(sc4ncnc(N)c34)C2)sc1C", "note": "[CBK306420]", "% of control remaining": 115.23}
{"smiles": "CN(CCC#N)C(=O)c1cc2cc(Cl)ccc2[nH]1", "note": "[CBK287956]", "% of control remaining": 113.276}
{"smiles": "CCc1ccc(C(O)CNC2CCN(c3nccs3)CC2)cc1", "note": "(stereo not drawn) [CBK304215]", "% of control remaining": 111.571}
{"smiles": "O=C(CSc1nnc(-c2ccco2)o1)Nc1cccc2nsnc12", "note": "[CBK268006]", "% of control remaining": 111.626}
{"smiles": "Cc1ccc(-c2cnc3ccccc3n2)cc1NC(=O)c1ccccc1S(=O)(=O)c1ccc([N+](=O)[O-])cc1", "note": "[CBK267690]", "% of control remaining": 111.312}
{"smiles": "O=C(Nc1ccc(NC(=O)c2cc3ccccc3o2)cc1)c1ccc(-c2ccccc2)cc1", "note": "[CBK268887]", "% of control remaining": 134.064}
{"smiles": "CC(C)(C)OCc1[nH]nc(O)c1Cc1c(Cl)cccc1Cl", "note": "[CBK089569]", "% of control remaining": 95.1825}
{"smiles": "COc1ccc(C(=O)N2CCC[C@H]3NC(=O)COc4ccccc4C(=O)N[C@@H]4CCOC[C@@H]4C/C=C/C[C@@H]32)cc1", "note": "[CBK292194]", "% of control remaining": 101.029}
{"smiles": "Cc1ccc2c(c1)C(=O)CC1(CCC3C(C(=O)NC4CCCC4)C31)O2", "note": "(stereo not drawn) [CBK282716]", "% of control remaining": 108.602}
{"smiles": "COCC(=O)N[C@H]1C[C@H]2C(=O)Nc3ccc(-c4cccs4)cc3C(=O)N2C1", "note": "[CBK289358]", "% of control remaining": 132.39}
